A short description of this data set: general procedure: Fmoc solid-phase peptide synthesis; benzhydrylamine resin (BHA), p-Me-BHA, chloromethylated or hydroxymethylated resin; symmetrical anhydrides or diisopropylcarbodiimide; Opfp esters; alternatively BO. The following applies: whole synthesis.
The mark [1] stands for this setting: TFA salts, purified as acetate salts.

Some peptides are written in HELM: one residue between dots, names in brackets for other building blocks, links after the first $.

As for “4-(aminomethyl)cyclohexanecarbonyl-D-Mrp-D-Trp-Phe-Lys-NH^2”, the “final HPLC purity” value under setting [1] was 99.0%.
The same measure, in the same setting: in the case of “PEPTIDE1{[INIP].[D-Mrp].[dW].F.K.[am]}$$$$V2.0” it was 99.0%.
For “PEPTIDE1{[GAB].[D-Mrp].[dW].F.K.[am]}$$$$V2.0”, where the note is “acetate salt”, the “final HPLC purity” value worked out at 98%.
Consider IMA-D-Mrp-D-Trp-Phe-Lys-NH2, for which the “final HPLC purity” value under setting [1] is recorded as 99.2%.
Same read-out and setting: in the case of IMA-D-Mrp-D-β-Nal-Phe-Lys-NH2 it was 97.3%; in that of D-Ala-D-Mrp-Ala-Trp-D-Phe-Lys-NH2, 99.3%; in that of D-Thr-D-Mrp-Ala-Trp-NH2, 97.5%.
Regarding PEPTIDE1{H.[D-Mrp].A.W.[am]}$$$$V2.0, under setting [1], the “final HPLC purity” value is given as 99.8%.
On the same count and under the same terms, in the case of D-Thr-D-Mrp-Ala-Trp-D-Phe-Lys-NH2 it was 98.0%; in that of “PEPTIDE1{[GAB].[D-Mrp].[D-Mrp].F.K.[am]}$$$$V2.0”, 98.0%.
With Tyr-His-D-Mrp-Ala-Trp-D-Phe-Lys-NH2, the “final HPLC purity” value under setting [1] came to 96.8%.
Same read-out and setting: the value for “PEPTIDE1{[GAB].[D-Mrp].[D-Mrp].[D-Mrp].K.[am]}$$$$V2.0” was 99.0%.
In the case of “PEPTIDE1{[GAB].[D-Mrp].[D-bNal].F.K.[am]}$$$$V2.0”, the “final HPLC purity” value under setting [1] is on record as 99.0%.
Turning to “4-(aminomethyl)cyclohexanecarbonyl-D-Mrp-D-β-Nal-Phe-Lys-NH2”, the “final HPLC purity” value under setting [1] was found to be 96.9%.
The same measure, in the same setting: in the case of “PEPTIDE1{[INIP].[D-Mrp].[D-bNal].F.K.[am]}$$$$V2.0” it was 96.5%; in that of His-D-Mrp-Ala-Phe-D-Trp-Lys-NH2, 22 98.6%.
Regarding “PEPTIDE1{[GAB].[D-Mrp].[D-Mrp].[Mrp].K.[am]}$$$$V2.0”, under setting [1], the “final HPLC purity” value is on record as 98.0%.

Values taken from US5955421A (priority 1990, dated 1999).
